From publication PMC12819141, “RNase MRP subunit composition and role in 40S ribosome biogenesis” (Nature Structural & Molecular Biology, 2025)
Results are given in words; binding and its absence hold for the method and conditions named. Binding seen in cells or lysates may run through a third protein. Here binding means that the protein was enriched with, or labelled near, the bait; the list need not be complete. For some of these results: No binding means not detected with the bait. Where a sequence is shown, tags or fusion partners need not be part of it.

T1: RPP14–GFP (human) (UniProt O95059)
T1 sequence: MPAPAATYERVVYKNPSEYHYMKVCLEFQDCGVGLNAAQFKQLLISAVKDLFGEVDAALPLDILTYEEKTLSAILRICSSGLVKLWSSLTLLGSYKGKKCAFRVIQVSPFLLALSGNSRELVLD

T2: C18orf21–GFP (human) (UniProt Q32NC0)
T2 sequence: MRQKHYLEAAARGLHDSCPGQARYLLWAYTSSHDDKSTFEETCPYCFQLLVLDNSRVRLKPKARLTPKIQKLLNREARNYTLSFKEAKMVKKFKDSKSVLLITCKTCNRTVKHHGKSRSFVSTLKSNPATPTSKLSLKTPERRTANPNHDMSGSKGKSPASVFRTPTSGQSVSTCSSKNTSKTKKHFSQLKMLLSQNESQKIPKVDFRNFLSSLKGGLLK

T3: RPP21–GFP (human) (UniProt Q9H633)
T3 sequence: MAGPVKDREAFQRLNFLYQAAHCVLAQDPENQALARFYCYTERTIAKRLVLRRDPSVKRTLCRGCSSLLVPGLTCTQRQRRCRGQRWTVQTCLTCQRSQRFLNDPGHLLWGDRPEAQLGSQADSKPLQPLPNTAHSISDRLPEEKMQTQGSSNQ

T4: NEPRO–GFP (human) (UniProt Q6NW34)
T4 sequence: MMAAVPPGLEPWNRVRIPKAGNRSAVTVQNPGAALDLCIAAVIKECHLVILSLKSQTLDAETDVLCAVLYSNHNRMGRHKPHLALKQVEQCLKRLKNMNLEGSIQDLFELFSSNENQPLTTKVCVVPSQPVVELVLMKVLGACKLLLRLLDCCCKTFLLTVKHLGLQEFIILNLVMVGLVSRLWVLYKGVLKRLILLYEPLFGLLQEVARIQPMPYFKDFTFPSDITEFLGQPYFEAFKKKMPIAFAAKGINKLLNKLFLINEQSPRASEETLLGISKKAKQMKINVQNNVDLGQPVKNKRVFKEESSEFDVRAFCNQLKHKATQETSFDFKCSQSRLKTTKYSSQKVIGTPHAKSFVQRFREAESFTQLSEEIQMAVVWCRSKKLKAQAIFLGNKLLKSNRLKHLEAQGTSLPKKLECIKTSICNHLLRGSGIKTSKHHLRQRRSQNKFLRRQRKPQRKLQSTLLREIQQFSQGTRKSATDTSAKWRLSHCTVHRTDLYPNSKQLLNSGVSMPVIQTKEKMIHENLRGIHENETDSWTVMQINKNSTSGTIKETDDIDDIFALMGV

B1: RMP24 (coexpressed with RPP29 in bacteria) (natural protein, human, UniProt Q32NC0 1-220, looked up)
chain: T2 sequence
notes: C18orf21 (RMP24), human; codon-optimized bicistronic cassette with RPP29 in pGEX-6P-1; The pGEX-6P-1 vector adds GST to one of the two chains; also called C18orf21; full-length RMP24; source: E. coli BL21-DE3, coexpressed with RPP29, purified (Glutathione-Agarose, S200 increase)
B2: RPP38 (protein, UniProt P78345 1-283)
chain: MAAAPQAPGRGSLRKTRPLVVKTSLNNPYIIRWSALESEDMHFILQTLEDRLKAIGLQKIEDKKKKNKTPFLKKESREKCSIAVDISENLKEKKTDAKQQVSGWTPAHVRKQLAIGVNEVTRALERRELLLVLVCKSVKPAMITSHLIQLSLSRSVPACQVPRLSERIAPVIGLKCVLALAFKKNTTDFVDEVRAIIPRVPSLSVPWLQDRIEDSGENLETEPLESQDRELLDTSFEDLSKPKRKLADGRQASVTLQPLKIKKLIPNPNKIRKPPKSKKATPK
B3: POP7 (RPP20) (protein, UniProt O75817 1-140)
chain: MAENREPRGAVEAELDPVEYTLRKRLPSRLPRRPNDIYVNMKTDFKAQLARCQKLLDGGARGQNACSEIYIHGLGLAINRAINIALQLQAGSFGSLQVAANTSTVELVDELEPETDTREPLTRIRNNSAIHIRVFRVTPK
B4: NEPRO (C3orf17) (protein, UniProt Q6NW34 1-567)
chain: T4 sequence
B5: RPP21 (protein, UniProt Q9H633 1-154)
chain: T3 sequence
B6: RPP25 (protein, UniProt Q9BUL9 1-199)
chain: MENFRKVRSEEAPAGCGAEGGGPGSGPFADLAPGAVHMRVKEGSKIRNLMAFATASMAQPATRAIVFSGCGRATTKTVTCAEILKRRLAGLHQVTRLRYRSVREVWQSLPPGPTQGQTPGEPAASLSVLKNVPGLAILLSKDALDPRQPGYQPPNPHPGPSSPPAAPASKRSLGEPAAGEGSAKRSQPEPGVADEDQTA
B7: POP1 (protein, UniProt Q99575 1-1024)
chain: MSNAKERKHAKKMRNQPTNVTLSSGFVADRGVKHHSGGEKPFQAQKQEPHPGTSRQRQTRVNPHSLPDPEVNEQSSSKGMFRKKGGWKAGPEGTSQEIPKYITASTFAQARAAEISAMLKAVTQKSSNSLVFQTLPRHMRRRAMSHNVKRLPRRLQEIAQKEAEKAVHQKKEHSKNKCHKARRCHMNRTLEFNRRQKKNIWLETHIWHAKRFHMVKKWGYCLGERPTVKSHRACYRAMTNRCLLQDLSYYCCLELKGKEEEILKALSGMCNIDTGLTFAAVHCLSGKRQGSLVLYRVNKYPREMLGPVTFIWKSQRTPGDPSESRQLWIWLHPTLKQDILEEIKAACQCVEPIKSAVCIADPLPTPSQEKSQTELPDEKIGKKRKRKDDGENAKPIKKIIGDGTRDPCLPYSWISPTTGIIISDLTMEMNRFRLIGPLSHSILTEAIKAASVHTVGEDTEETPHRWWIETCKKPDSVSLHCRQEAIFELLGGITSPAEIPAGTILGLTVGDPRINLPQKKSKALPNPEKCQDNEKVRQLLLEGVPVECTHSFIWNQDICKSVTENKISDQDLNRMRSELLVPGSQLILGPHESKIPILLIQQPGKVTGEDRLGWGSGWDVLLPKGWGMAFWIPFIYRGVRVGGLKESAVHSQYKRSPNVPGDFPDCPAGMLFAEEQAKNLLEKYKRRPPAKRPNYVKLGTLAPFCCPWEQLTQDWESRVQAYEEPSVASSPNGKESDLRRSEVPCAPMPKKTHQPSDEVGTSIEHPREAEEVMDAGCQESAGPERITDQEASENHVAATGSHLCVLRSRKLLKQLSAWCGPSSEDSRGGRRAPGRGQQGLTREACLSILGHFPRALVWVSLSLLSKGSPEPHTMICVPAKEDFLQLHEDWHYCGPQESKHSDPFRSKILKQKEKKKREKRQKPGRASSDGPAGEEPVAGQEALTLGLWSGPLPRVTLHCSRTLLGFVTQGDFSMAVGCGEALGFVSLTGLLDMLSSQPAAQRGLVLLRPPASLQYRFARIAIEV
B8: POP4 (RPP29) (protein, UniProt O95707 1-220)
chain: MKSVIYHALSQKEANDSDVQPSGAQRAEAFVRAFLKRSTPRMSPQAREDQLQRKAVVLEYFTRHKRKEKKKKAKGLSARQRRELRLFDIKPEQQRYSLFLPLHELWKQYIRDLCSGLKPDTQPQMIQAKLLKADLHGAIISVTKSKCPSYVGITGILLQETKHIFKIITKEDRLKVIPKLNCVFTVETDGFISYIYGSKFQLRSSERSAKKFKAKGTIDL
B9: RPP14 (protein, UniProt O95059 1-124)
chain: T1 sequence
B10: POP5 (protein, UniProt Q969H6 1-163)
chain: MVRFKHRYLLCELVSDDPRCRLSLDDRVLSSLVRDTIARVHGTFGAAACSIGFAVRYLNAYTGIVLLRCRKEFYQLVWSALPFITYLENKGHRYPCFFNTLHVGGTIRTCQKFLIQYNRRQLLILLQNCTDEGEREAIQKSVTRSCLLEEEEESGEEAAEAME
B11: RPP30 (protein, UniProt P78346 1-268)
chain: MAVFADLDLRAGSDLKALRGLVETAAHLGYSVVAINHIVDFKEKKQEIEKPVAVSELFTTLPIVQGKSRPIKILTRLTIIVSDPSHCNVLRATSSRARLYDVVAVFPKTEKLFHIACTHLDVDLVCITVTEKLPFYFKRPPINVAIDRGLAFELVYSPAIKDSTMRRYTISSALNLMQICKGKNVIISSAAERPLEIRGPYDVANLGLLFGLSESDAKAAVSTNCRAALLHGETRKTAFGIISTVKKPRPSEGDEDCLPASKKAKCEG

Target: T1, RPP14–GFP (human)
Test: affinity purification with mass spectrometry; label-free IP–MS; C-terminally GFP-tagged bait from HeLa lysate on Protein A beads coupled to rabbit anti-GFP antibody, 2 h at 4 °C; polysome lysis buffer (20 mM Hepes pH 7.5, 100 mM KCl, 5 mM MgCl2, 1% Triton X-100) with 1% CHAPS; compared with control GFP

binding	Binder
binds	B1
binds	B2
binds	B3
binds	B4
binds	B5
binds	B6
binds	B7
binds	B8

Target: T2, C18orf21–GFP (human)
Test: as above

binding	Binder
binds	B9
binds	B3
binds	B4
no binding	B5
binds	B6
binds	B7
binds	B10
binds	B11

Target: T3, RPP21–GFP (human)
Test: as above

binding	Binder
no binding	B1
binds	B9
binds	B2
binds	B3
no binding	B4
binds	B6
binds	B7
binds	B10
binds	B8
binds	B11

Target: T4, NEPRO–GFP (human)
Test: as above

binding	Binder
binds	B1
binds	B9
binds	B2
binds	B3
no binding	B5
binds	B6
binds	B10
binds	B11
